Where “and” joins values, the source holds several entries; their conditions need not be identical. Identical values can stand only once. Counter-ions that a name gives are not always drawn. ± gives the standard deviation of the averaged measurements. This is one part of the list. Plates or batches differ in their baseline, so values are only roughly comparable.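 Primary human stellate myofibroblasts activated in culture; inactivation shown by regained lipid droplets. Readout: fraction of Hoechst-counted cells exceeding a per-plate Bodipy threshold, duplicate wells, each plate with DMSO negative and nortriptyline positive controls. Hits: control-normalized score beyond the plate's top-tenth-percentile nortriptyline wells, or among its three best wells. Final well concentrations unstated.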
System: primary human hepatic stellate cells (donor 1)
Assay: percent Bodipy-positive cells; higher = more lipid droplet accumulation
Conditions: 48 h
[1] = library stock concentration: 400 uM
[2] = library stock concentration: 2 mM
[3] = library stock concentration: 10 mM
[4] = library stock concentration: 3.33 mM
[5] = library stock concentration: 1 mM

## Cc1ccc(NC(=O)c2ccc(CN3CCN(C)CC3)cc2)cc1Nc1nc(-c2cccnc2)cs1 [Masitinib]
Library stock concentration: 80 uM
  percent Bodipy-positive cells: 16.5 ± 2.5%
[1]
  percent Bodipy-positive cells: 26.2 ± 1.4%
[2]
  percent Bodipy-positive cells: 23.4 ± 0.83%

## Cc1ccc(NC(=O)c2ccc(CN3CCN(C)CC3)cc2)cc1Nc1nc(-c2cccnc2)cs1 [Masitinib (AB1010, Masivet) (0.4 mM)]
[1]
  percent Bodipy-positive cells: 54.6 ± 1.1%

## COc1nc(C)nc(Cl)c1NC1=NCCN1 [Moxonidine hydrochloride]
[3]
  percent Bodipy-positive cells: 25.9% and 6.28%

## COc1nc(C)nc(Cl)c1NC1=NCCN1 [Moxonidine]
  percent Bodipy-positive cells: 8.27 ± 1.3%
[4]
  percent Bodipy-positive cells: 7.55 ± 2%
[3]
  percent Bodipy-positive cells: 10.2 ± 3.4%

## COc1nc(C)nc(Cl)c1NC1=NCCN1
[3]
  percent Bodipy-positive cells: 13.7 ± 5.2%

## CCn1cc(C(=O)O)c(=O)c2cnc(N3CCNCC3)nc21 [Pipemidic acid]
  percent Bodipy-positive cells: 9.88 ± 0.17%
[3]
  percent Bodipy-positive cells: 27.8 ± 9%

## O=C(Nc1cc(C(F)(F)F)ccc1N1CCCCC1)c1ccncc1
[4]
  percent Bodipy-positive cells: 36.4 ± 12%
[3]
  percent Bodipy-positive cells: 34.3 ± 9.1%

## COc1cc2nc(N3CCN(C(=O)c4ccco4)CC3)nc(N)c2cc1OC [Prazosin hydrochloride]
  percent Bodipy-positive cells: 79 ± 5%
Library stock concentration: 4.8 mM
  percent Bodipy-positive cells: 83.8 ± 11%
[3]
  percent Bodipy-positive cells: 73% and 96.1%

## COc1cc2nc(N3CCN(C(=O)c4ccco4)CC3)nc(N)c2cc1OC [Prazosin HCl]
Library stock concentration: 5.2 mM
  percent Bodipy-positive cells: 62.4 ± 6.9%

## COc1cc2nc(N3CCN(C(=O)c4ccco4)CC3)nc(N)c2cc1OC [Prazosin]
[3]
  percent Bodipy-positive cells: 92.2 ± 7%

## NCCS(=O)(=O)O [Taurine]
[3]
  percent Bodipy-positive cells: 23.46 ± 0.098%
Library stock concentration: 16 mM
  percent Bodipy-positive cells: 16.7 ± 3.3%

## CC(C)OC(=O)CCC/C=C\C[C@@H]1[C@@H](/C=C/C(F)(F)COc2ccccc2)[C@H](O)C[C@@H]1O [Tafluprost]
[5]
  percent Bodipy-positive cells: 6.82 ± 3.1%

## N#CC(C#N)=C(N)/C(C#N)=C/c1ccc(O)cc1
[4]
  percent Bodipy-positive cells: 8.59 ± 2.7%

## N#CC(C#N)=C(N)/C(C#N)=C/c1ccc(O)cc1 [Tyrphostin AG 112]
[3]
  percent Bodipy-positive cells: 17.8 ± 6%

## CCCCCCCC/C=C\CCCCCCCC(=O)OC[C@@H](O)COP(=O)(O)O [1-Oleoyl Lysophosphatidic Acid]
[5]
  percent Bodipy-positive cells: 9.7 ± 3.2%

## CCCCCCCC/C=C\CCCCCCCC(=O)OC[C@@H](O)COP(=O)(O)O [1-Oleoyl Lysophosphatidic Acid (sodium salt)]
[5]
  percent Bodipy-positive cells: 7.74 ± 2.2%

## Cc1nc2c(c(=O)[nH]1)CSCC2
[3]
  percent Bodipy-positive cells: 7.73 ± 1.8%

## CCCCCCCC/C=C\CCCCCCCC(=O)N[C@@H](CO)Cc1ccc(O)cc1
[5]
  percent Bodipy-positive cells: 26.5 ± 11%
[3]
  percent Bodipy-positive cells: 14.2 ± 2.4%

## Oc1c(I)cc(I)c2cccnc12 [Iodoquinol]
Library stock concentration: 5 mM
  percent Bodipy-positive cells: 3.76 ± 0.27%
[3]
  percent Bodipy-positive cells: 11.4 ± 4.1%

## CCO[C@@H]1OC(=O)C[C@@H]1NC(=O)[C@@H]1CCCN1C(=O)[C@@H](NC(=O)c1ccc(N)c(Cl)c1)C(C)(C)C
[4]
  percent Bodipy-positive cells: 8.51 ± 4.5%
[3]
  percent Bodipy-positive cells: 17.4 ± 13%

## CCN(CC)CCNC(=O)c1cc(S(C)(=O)=O)ccc1OC [Tiapride hydrochloride]
  percent Bodipy-positive cells: 22 ± 1.7%

## CCCCCC=CCC=CCCCCCCCC(=O)OC(CO)CO [2-Linoleoyl Glycerol]
[5]
  percent Bodipy-positive cells: 15.2 ± 2.9%

## CCCCCC(C)N (centres undefined) [Tuaminoheptane sulfate]
Library stock concentration: 9.4 mM
  percent Bodipy-positive cells: 12.3 ± 1.4%
[3]
  percent Bodipy-positive cells: 25.8 ± 0.59%

## COc1ccc2cc(CCC(C)=O)ccc2c1 [Nabumetone]
  percent Bodipy-positive cells: 18.1 ± 3.7%
[4]
  percent Bodipy-positive cells: 15.9 ± 1.5%
Library stock concentration: 8.8 mM
  percent Bodipy-positive cells: 18.4% and 18.1%
[3]
  percent Bodipy-positive cells: 46.9% and 40.7%

## COc1ccc2cc(CCC(C)=O)ccc2c1
[3]
  percent Bodipy-positive cells: 47.9 ± 5.3%

## O=C(O)CCC(=O)OC[C@@H](NC(=O)C(Cl)Cl)[C@H](O)c1ccc([N+](=O)[O-])cc1 [Chloramphenicol hemisuccinate]
Library stock concentration: 4.7 mM
  percent Bodipy-positive cells: 2.06 ± 1.1%
[3]
  percent Bodipy-positive cells: 8.05 ± 0.84%

## Cc1cccc(/C=C/c2ccccc2)n1
[3]
  percent Bodipy-positive cells: 20.4% and 7.16%

## CCn1cc(C(=O)O)c(=O)c2ccc(C)nc21 [Nalidixic acid]
[4]
  percent Bodipy-positive cells: 6.19 ± 2.4%
Library stock concentration: 8.6 mM
  percent Bodipy-positive cells: 10.8 ± 2.8%
[3]
  percent Bodipy-positive cells: 20.9% and 22.9%

## CCn1cc(C(=O)O)c(=O)c2ccc(C)nc21 [Nalidixic acid sodium]
[3]
  percent Bodipy-positive cells: 40 ± 22%

## CCn1cc(C(=O)O)c(=O)c2ccc(C)nc21
[3]
  percent Bodipy-positive cells: 30.3 ± 9.7%

## COc1ccc(-c2oc3c(CC=C(C)C)c(O[C@@H]4O[C@H](CO)[C@@H](O)[C@H](O)[C@H]4O)cc(O)c3c(=O)c2O[C@@H]2O[C@@H](C)[C@H](O)[C@@H](O)[C@H]2O)cc1 [Icariin]
[4]
  percent Bodipy-positive cells: 19.1 ± 7.5%
[3]
  percent Bodipy-positive cells: 15.7 ± 3.5%

## COc1ccc(-c2oc3c(CC=C(C)C)c(O[C@@H]4O[C@H](CO)[C@@H](O)[C@H](O)[C@H]4O)cc(O)c3c(=O)c2O[C@@H]2O[C@@H](C)[C@H](O)[C@@H](O)[C@H]2O)cc1
[3]
  percent Bodipy-positive cells: 6.12 ± 0.44%

## C[C@H]1[C@@H](O)O[C@@H]2O[C@@]3(C)CC[C@H]4[C@H](C)CC[C@@H]1[C@@]24OO3
[3]
  percent Bodipy-positive cells: 35 ± 5.8%

## C[C@H]1[C@@H](O)O[C@@H]2O[C@@]3(C)CC[C@H]4[C@H](C)CC[C@@H]1[C@@]24OO3 [Dihydroartemisinin (DHA)]
[4]
  percent Bodipy-positive cells: 8.72 ± 0.15%
[3]
  percent Bodipy-positive cells: 7.5 ± 1.8%

## Cc1cc(C)cc(C(=O)N(C)[C@H](Cc2ccc(-c3ccccc3)cc2)C(=O)N[C@@H](Cc2c[nH]c3ccccc23)C(=O)O)c1
[3]
  percent Bodipy-positive cells: 11.8 ± 0.21%

## O=c1[nH]c2ccccc2c2ccccc12 [6(5H)-Phenanthridinone]
[3]
  percent Bodipy-positive cells: 14.7 ± 5.4%
Library stock concentration: 25.6 mM
  percent Bodipy-positive cells: 21.6 ± 2.1%

## C=CC(=O)Nc1cc(Nc2nccc(-c3cn(C)c4ccccc34)n2)c(OC)cc1N(C)CCN(C)C
[2]
  percent Bodipy-positive cells: 68.1 ± 12%

From the supplement of paper PMC9135407
